# ± gives the standard deviation. Only a part is listed here, and it is no random draw. Many entries were measured with a wide error.
# Tested on: MILI (PIWIL2) piRISC loaded with L1MC piRNA (26 nt)
# Assay: pre-steady-state target cleavage rate (min^-1); MIWI and MILI are mouse PIWI proteins and EfPiwi is from a freshwater sponge; tags in brackets are library labels; higher = faster piRNA-guided slicing of the target
# Details: guide: L1MC piRNA 5'p-UAACUAAAUACUAUGCAAGCUGUAGG; auxiliary factor: 500 nM mouse GTSF1
# Description: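 Cleave-'n-Seq: a library of target RNAs (target site embedded in constant flanks, ACAGCATTCCGCGTTAGTGATATCCG... 5' flank; DNA-blocked outside the site) at 0.1 nM was incubated with 1 nM active mouse MILI or MIWI piRISC (synthetic 5'-monophosphorylated piRNA guide) with or without 500 nM mouse GTSF1 at 33 °C for 1 min to 16 h. Uncleaved targets were sequenced and normalised to non-target controls, and the pooled three trials were fitted to a burst-and-steady-state model to give the pre-steady-state cleavage rate (min^-1; k3 is constrained to at most 1e-4). Sequence is the target site only; target names encode pairing extent (gX:gY) and contiguous / 1-mismatch / 2-mismatch / bulge geometry. Fits with R² ≤ 0 are excluded.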
row,Sequence,pre-steady-state target cleavage rate
1,UCCUGGAUGUCGAACGAUAGGUAUUUAGUUA,0.000197 ± 0.016
2,UCCUCCUACAGCUUGCAUAGUAUAUUAGUUA,0.282 ± 0.019
3,UCCUCCUUCAGCUUGCAUAGUAUUUUCAAA,0.115 ± 0.022
4,UCCUGGAUGUCGAAGCAUAGUAUUUAUGUUA,0.022 ± 0.0065
5,UCCUGGUACACGCUUGCAUAGUAUUUAGUUA,0.167 ± 0.046
6,UCCUGGAUGUCCUUGCAUAGUAUUGAGUUA,0.0563 ± 0.019
7,UCCUGGAUGUCGAACCAUAGUAUUUUCUUA,0.000114 ± 0.027
8,UCCUGGAUGUCGAUGCAUAGGUAUUUAGUUA,0.0035 ± 0.0037
9,UCCUGGAUGUCGUUGCAAUAGUAUUUAGUUA,0.00262 ± 0.0049
10,UCCUCGUACAGCUUGCAUAGUAUUUUGUUA,0.143 ± 0.016
11,UCCUGGAUGUCGAACCAUAGUAUUUUGUAA,0.000223 ± 0.042
12,UCCUGGAACAGCUUGCACUAGUAUUUAGUUA,0.0388 ± 0.0091
13,UCCUGGAUGUCGUUGCUAUGUAUUUAGUUA,0.000946 ± 0.0098
14,UCCUCCUACAGCUGGCAUAGUAUUUAGUUA,0.294 ± 0.02

# Same assay, conditions: guide: L1MC piRNA 5'p-UAACUAAAUACUAUGCAAGCUGUAGG; auxiliary factor: none (no GTSF1)
row,Sequence,pre-steady-state target cleavage rate
1,UCCUGGAUCUCCUUGCAUAGUAUUUUCAAA,0.000896 ± 0.008
2,UCCUCCUUCAGCUUGCAUAGUAUUUUCAAA,0.00147 ± 0.004
3,UCCUGGAUGAGCUUCCAUAGUAUUUAGUUA,0.00124 ± 0.0041
4,UCCUGGAUGUGCUUGCAUUGUAUUUUGUUA,0.00215 ± 0.0042
5,UCCUGGAUGUCGAAGCAUAGUAUUUAUGUUA,0.00179 ± 0.0037
6,UCCUGGUACACGCUUGCAUAGUAUUUAGUUA,0.0158 ± 0.0071
7,UCCUGGAUGUCGAACGUUAGUAAUUUAGUUA,0.000158 ± 0.023
8,UCCUGGAUGUGCUUGCAUACUAUUUAGAUA,0.000556 ± 0.013
9,UCCUGGAUGUCCUUGCAUAGUAUUGAGUUA,0.00138 ± 0.0053
10,UCCUGGAUGUCGAACCAUAGUAUUUUCUUA,0.000156 ± 0.027
11,UCCUGGAUGUCCUUGCAUAGUAUAUUGUUA,0.00196 ± 0.0039
12,UCCUGGUACUCCUUGCAUAGUAUUUAGUAA,0.00215 ± 0.0034
13,UCCUGGAUGUCGAUGCAUAGGUAUUUAGUUA,0.00161 ± 0.0059
14,UCCUGGAUGAGCUUGCAUAGUAUUUUCAUA,0.000636 ± 0.01
15,UCCUGGAUGUCGUUGCAAUAGUAUUUAGUUA,0.00188 ± 0.0035
16,UCCUCGUACAGCUUGCAUAGUAUUUUGUUA,0.00289 ± 0.0028
17,UCCUGGAUGUCGAACCAUAGUAUUUUGUAA,< 0.0001
18,UCCUGGAACAGCUUGCAUAGUAUUUCAGUUA,0.00116 ± 0.0061
19,UCCUGGAACAGCUUGCACUAGUAUUUAGUUA,0.00243 ± 0.0027
20,UCCUGGAUCAGCUUGCAUAGUAAUUACUUA,0.00137 ± 0.0044
21,UCCUGGAUGACCUAGCAUAGUAUUUAGUUA,0.00297 ± 0.0035
22,UCCUCCUACAGCUUGCAAAGUAUUUACAAA,0.00134 ± 0.0045
23,UCCUGGAUGUGCUUGGAUAGUAUUUAGAAA,0.000428 ± 0.0097
24,UCCUGGAUGUCGUUGCUAUGUAUUUAGUUA,0.00038 ± 0.012
25,UCCUGGUACAGCUUGCAUAGUAAUUACAAA,0.00124 ± 0.0053
26,UCCUGGAUGAGCUUGCAUAGUAUAAUCAAA,0.000818 ± 0.0078

# From the supplement of paper PMC10338343
